This passage reports cell number change and AC50 results from PubChem BioAssay AID2685 (National Center for Advancing Translational Sciences (NCATS), 2010).

This is one part of the list. Shown are side measurements of this screen, not its main read-out; they come without a call. The list favours compounds with an active or inconclusive main result. Words in brackets tell the shape of the fitted curve; partial curves, single points and poor fits give uncertain potencies.

A short description of this assay: qHTS Assay for Lipid Storage Modulators in Drosophila S3 Cells.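 On cell number change: cells counted by Cell Tracker Red CMTPX staining in the red channel.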 The following applies: BODIPY lipid droplet fluorescence, 18-24 h; for cell number change: measured here: cell count max response, cells fed with added oleic acid. In outline:
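Drosophila S3 cells loaded with oleic acid (400 uM, as added) and compounds at several concentrations; lipid droplets imaged by 488-nm laser-scanning cytometry, 500–530 nm intensity and object ratio to cell channel. Percent activity normalized to 20 uM Triacsin C.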
On the technique in general: Quantitative high-throughput screening tests each substance at several concentrations.

[1] abbreviates: measured here: lipid fluorescence (Fed channel) AC50, cells fed with added oleic acid.
Setting [2] is: measured here: cell number channel AC50, cells fed with added oleic acid.

Usually AC50 stands for the concentration at which the activity in the assay is half-maximal. The low end stands for greater potency, the high end for weaker potency.

Turning to `O=C1CSc2ccccc2N1Cc1ccc(F)cc1`, the cell number change worked out at 7.78%. The AC50 under setting [1] was 0.00461 µM [rising, full curve, poor fit].
Consider `Cc1ccc(NCC(=O)Nc2ccc(Br)cc2)cc1F`, for which the cell number change is -35.2%. For the same compound, under setting [2], the half-maximal activity concentration (AC50) is 11.6 µM [falling, partial curve]. In addition, the half-maximal activity concentration (AC50) under setting [1] was 13 µM [falling, single point].
Turning to `Cc1ccc(CN2CCNC2=O)cc1`, the cell number change is -45.1%. In addition, the AC50 under setting [2] is 29.1 µM [falling, single point]. Further, under setting [1], the concentration at half-maximal activity (AC50) was 1.3 µM [falling, partial curve, poor fit].
Consider `CCOC(=O)N1CCN(C2=Nc3cccc4cccc2c34)CC1`, for which the cell number change is -8.84%.
Consider `Cn1ncc2c(NNC(=O)c3ccc(O)cc3)ncnc21`, for which the cell number change was -23.7%. For the same compound, under setting [1], the AC50 was 20.6 µM [falling, partial curve, poor fit].
Take `O=C(CCCOc1ccccc1)N1CCc2ccccc2C1`: the AC50 under setting [2] was 6.51 µM [falling, single point].
As for `Cc1nn(CC(=O)N2CCOCC2)c(C)c1[N+](=O)[O-]`, the cell number change stood at 8.44%. The AC50 under setting [1] is 0.103 µM [rising, full curve, poor fit].
`CCC1Sc2ccc(S(=O)(=O)CCC(=O)N3CCc4ccccc43)cc2NC1=O` (stereo not drawn): the cell number change is -1.47%. Also, the concentration at half-maximal activity (AC50) under setting [1] was 29.1 µM [rising, single point].
Consider `CNC(=S)N1N=C(c2ccc(C)cc2)CC1c1ccc(Cl)cc1` (stereo not drawn), for which the concentration at half-maximal activity (AC50) runs as follows: under setting [2], 0.58 µM [rising, full curve]; under setting [1], 0.82 µM [rising, partial curve].
With `CCN1CCN(c2ccc(S(=O)(=O)N3CCOCC3)cc2NC(=O)CCSC)CC1`, the cell number change was 1.65%. Moreover, the AC50 under setting [2] is 0.00461 µM [falling, full curve, poor fit]. Besides, the AC50 under setting [1] was 1.84 µM [falling, partial curve].
`Cc1nn(C(C)C(=O)O)c2ccccc12` (stereo not drawn): the cell number change was -118%. Moreover, the AC50 under setting [2] was 25.9 µM [falling, partial curve]. Under setting [1], the AC50 is 23.1 µM [falling, partial curve].
For `O=C1CN(C(=O)CC2C(=O)NCCN2Cc2ccccc2C(F)(F)F)CCN1` (stereo not drawn), the cell number change amounted to 23.5%.
Take `Oc1ccc(Oc2ccc3c(C(F)(F)F)cc(C(F)(F)F)nc3n2)cc1`: the cell number change was -11.3%. Besides, the AC50 under setting [1] is 29.1 µM [falling, single point].
`N=C1C(c2nc3ccccc3s2)=C(O)CN1NC(=O)c1c[nH]c2ccccc12`: the cell number change is -11.5%. Also, the AC50 under setting [1] is 29.1 µM [falling, single point].
As for `COc1ccc(Cl)cc1NC(=O)CN(C)C(=O)c1ccc2c(c1)CC(c1ccccc1)OC2=O` (stereo not drawn), the cell number change was -7.34%. The AC50 under setting [2] was 1.46 µM [rising, full curve]. For the same compound, the AC50 under setting [1] is 6.51 µM [rising, single point].
For `O=C(c1ccc([N+](=O)[O-])c(CS(=O)(=O)c2ccc(Cl)cc2)c1)N1CCCCC1`, the cell number change turned out to be 20.6%. Further, the AC50 under setting [2] was 4.11 µM [rising, partial curve, poor fit].
Take `S=C(NCCN1CCOCC1)N/N=C/c1ccccc1`: the cell number change was 47.5%. The AC50 under setting [2] was 9.2 µM [rising, partial curve, poor fit].
Consider `COc1ccc(C2CC(=O)CC(=O)C2n2cncn2)cc1` (stereo not drawn), for which the cell number change stood at 4.04%.
On the same count and under the same terms, under `COc1ccc(-c2cc(C(=O)N3CCN(c4ccccn4)CC3)c3ccccc3n2)cc1` stands -28.6%.
Turning to `COc1ccc(CNC(=O)COC(=O)/C=C/c2ccc(Cl)cc2)cc1`, the cell number change was -26.1%. For the same compound, the half-maximal activity concentration (AC50) under setting [1] is 20.6 µM [falling, single point].
With `Cc1onc(-c2ccccc2Cl)c1C(=O)N(Cc1nc(-c2ccccc2)no1)C1CCCCC1`, the cell number change came out at 108%. The AC50 under setting [2] was 7.31 µM [rising, partial curve]. Further, the AC50 under setting [1] is 25.9 µM [rising, single point].
Take `Cc1ccc(C)c(N2CCN(S(=O)(=O)c3cc4c(cc3C)NC(=O)CO4)CC2)c1`: the cell number change is -1.44%. Also, the half-maximal activity concentration (AC50) under setting [1] was 0.00651 µM [falling, full curve, poor fit].
Take `CCc1c(C)nc2cc(-c3ccc(OC)c(OC)c3)nn2c1N1CCCC1`: the cell number change is -42.1%. Besides, the AC50 under setting [2] is 9.2 µM [falling, partial curve, poor fit]. For the same compound, the AC50 under setting [1] was 16.4 µM [falling, partial curve].
On to `CCN(CCCNC(=O)CN1C(=O)COc2ccccc21)c1ccccc1`, for which the cell number change was 9.2%. Moreover, the AC50 under setting [1] is 29.1 µM [falling, single point].
With `COC(=O)c1ccc(SCC(=O)NC2CCCCC2)c([N+](=O)[O-])c1`, the cell number change is 11%. The AC50 under setting [1] was 0.461 µM [rising, full curve, poor fit].
Take `O=C(c1c(F)cccc1F)N(Cc1cccs1)C1CCCC1`: the AC50 under setting [1] was 0.00461 µM [rising, full curve, poor fit].
In the case of `CCn1cc(C(=O)NCCC(C)C)c(=O)c2cc(F)c(N3CCN(C(=O)c4ccco4)CC3)cc21`, the cell number change was -23.5%. For the same compound, the AC50 under setting [2] is 0.651 µM [falling, full curve, poor fit]. The AC50 under setting [1] is 6.51 µM [falling, partial curve].
Take `Cc1cccc(NC(=O)C2CCN(C(=O)NCc3ccccc3)CC2)c1C`: the cell number change is 25.2%. The AC50 under setting [1] was 29.1 µM [rising, single point].
As to `Cc1nc2cc(NC(=O)N(C)c3ccc4ccccc4c3)ccc2o1`, the cell number change was determined as 30.2%. Further, the AC50 under setting [2] is 3.66 µM [rising, single point].
In the case of `O=C1NCCCc2c1oc1cc(Br)c(O)c(Br)c21`, the cell number change is -42.4%. The AC50 under setting [2] is 5.17 µM [falling, full curve].
With `O=C(Nc1cccc(C(F)(F)F)c1)Nc1ccc(N2CCCC2)c(S(=O)(=O)Nc2ccccc2Cl)c1`, the cell number change was -88.5%. Moreover, the AC50 under setting [2] is 23.1 µM [falling, partial curve]. In addition, the AC50 under setting [1] is 5.17 µM [falling, full curve].
Take `O=C(NCc1ccco1)C1CCCN1C(=O)NCc1ccccc1` (stereo not drawn): the cell number change is -4.95%. For the same compound, under setting [1], the AC50 is 29.1 µM [rising, single point].
Regarding `CC(C)NS(=O)(=O)c1ccc(NC(=O)C(C)OC(=O)CCC(=O)c2cccs2)cc1` (stereo not drawn), the cell number change was -30.9%. Further, under setting [2], the AC50 is 29.1 µM [falling, single point]. Also, the AC50 under setting [1] is 29.1 µM [falling, single point].
`CC(C)C[C@H](NC(=O)N1CCn2c1nc1ccccc12)C(=O)NCc1ccc2c(c1)OCO2`: the cell number change is -12.2%. In addition, under setting [1], the concentration at half-maximal activity (AC50) was 29.1 µM [falling, single point].
For `O=c1cc(CN2CCN(S(=O)(=O)c3ccccc3)CC2)nc2sccn12`, the cell number change is -17.8%. Besides, the AC50 under setting [1] is 25.9 µM [falling, partial curve, poor fit].
For `CN1CCN(c2cc3c(c4c2[nH]c2ccccc24)C(=O)CC(C)(C)C3)CC1`, the cell number change was -36.1%. Moreover, the AC50 under setting [2] is 29.1 µM [falling, partial curve]. Also, the AC50 under setting [1] is 5.8 µM [falling, partial curve, poor fit].
`CCCCC(=O)N1CCN(c2nc3ccc(OCC)cc3s2)CC1`: the cell number change is -9.07%.
The same measure, in the same setting: under `CCOC(=O)Cn1c(=O)n(C2CCCC2)c(=O)c2ccccc21` stands -6.12%.
`CCCc1cc(=O)[nH]c(SCC(=O)Nc2sc3c(c2C#N)CCCC3)n1`: the cell number change turned out to be 2.68%. The AC50 under setting [1] is 29.1 µM [rising, single point].
Regarding `c1cncc(C(c2nnnn2C2CCCC2)N2CCN(Cc3ccc4c(c3)OCO4)CC2)c1` (stereo not drawn), the half-maximal activity concentration (AC50) under setting [1] was 0.259 µM [rising, full curve, poor fit].
Regarding `O=C(CSc1nc2cc(Cl)ccc2s1)NCc1ccc2c(c1)OCO2`, the cell number change is -20.4%. Also, under setting [1], the half-maximal activity concentration (AC50) was 32.6 µM [falling, single point].
With `COc1ccc(CNC(=O)Cn2c(=O)n(CCC(=O)N3CCCCC3)c(=O)c3sccc32)cc1`, the cell number change came to 13.8%.
With `Cc1nn(-c2ccccc2)nc1CNC(=O)c1ncoc1-c1ccccc1`, the cell number change came out at 18.1%. The AC50 under setting [2] was 2.06 µM [falling, single point]. For the same compound, the AC50 under setting [1] was 3.66 µM [falling, single point].
Consider `COc1cccc(CN2CCN(Cc3cc(OC)c(OC)c(OC)c3)CC2)c1OC`, for which the cell number change was -15.1%. Besides, the AC50 under setting [1] was 20.6 µM [rising, single point].
Consider `CC(=O)c1cnc2c(-c3cccc(Br)c3)cnn2c1C`, for which the cell number change was 12.7%. Under setting [1], the AC50 is 0.231 µM [rising, full curve].
`Cc1ccccc1OCc1nnc(SCc2cc(=O)[nH]c3ccccc23)o1`: the AC50 was 6.51 µM [rising, single point] under setting [2] and 6.51 µM [rising, single point] under setting [1].
As to `O=C(CCC(=O)c1cccs1)OCC(=O)c1ccc(Cl)s1`, the cell number change was 2.4%. Moreover, the half-maximal activity concentration (AC50) under setting [1] was 6.51 µM [rising, full curve].
Consider `Cc1cccc2nc3c(nc12)-c1ccccc1C3=O`, for which the cell number change turned out to be 27.4%. Moreover, under setting [1], the AC50 was 0.231 µM [rising, full curve].
For `CCc1cccc(NC(=O)CCc2nc(-c3cccs3)no2)c1`, the cell number change was -1.59%. Under setting [1], the concentration at half-maximal activity (AC50) is 1.84 µM [falling, partial curve, poor fit].
Turning to `Cc1ccc(C(=O)NCC(=O)OCN2C(=O)c3ccccc3C2=O)cc1C`, the cell number change was 12.4%. Further, the AC50 under setting [1] was 4.61 µM [rising, partial curve, poor fit].
Take `CCOC(=O)Cn1cnc2sc3c(c2c1=O)CCC3`: the cell number change is -166%. Moreover, the AC50 under setting [2] is 23.1 µM [falling, partial curve]. The AC50 under setting [1] is 29.1 µM [falling, single point].
Consider `CCc1cccc(NC(=O)CN(c2ccc(C)cc2)S(=O)(=O)c2c(C)noc2C)c1`, for which the cell number change came to 5.65%. In addition, the AC50 under setting [1] is 29.1 µM [falling, single point].
`CC1CCc2c(C(=O)Oc3cccc(-n4cnnn4)c3)csc2C1` (stereo not drawn): the cell number change is -3.14%. In addition, the AC50 under setting [1] is 0.259 µM [falling, full curve].
In the case of `CCOCC(=O)Nc1c(C(=O)Nc2ccccc2OC)oc2ccccc12`, the cell number change is -19.1%.
`COc1ccc(C)cc1-n1c(SCC(=O)Nc2cc(C)on2)nc2sc(C)c(C)c2c1=O`: the cell number change was -4.41%. The AC50 under setting [1] was 3.66 µM [rising, full curve, poor fit].
Take `Cc1ccc(S(=O)(=O)N2CC(=O)Nc3ccccc32)cc1C`: the cell number change came out at 19.1%. For the same compound, the AC50 under setting [1] is 13 µM [rising, single point].
As for `Cc1ccc(-c2csc(NC(=O)c3cnccn3)n2)cc1C`, the cell number change was 140%. Besides, under setting [2], the AC50 is 29.1 µM [rising, single point].
Turning to `O=S(=O)(NCc1ccncc1)c1ccccc1`, the AC50 is, setting by setting: under setting [2], 0.517 µM [falling, partial curve, poor fit]; under setting [1], 2.31 µM [falling, partial curve].
